The text below walks through data of publication PMC7819943, “Rice protein-binding microarrays: a tool to detect cis-acting elements near promoter regions in rice”.

Sequences of proteins named here, by UniProt entry; tags and fusion partners are left off.
UniProt Q0JBA9, entry or part of it: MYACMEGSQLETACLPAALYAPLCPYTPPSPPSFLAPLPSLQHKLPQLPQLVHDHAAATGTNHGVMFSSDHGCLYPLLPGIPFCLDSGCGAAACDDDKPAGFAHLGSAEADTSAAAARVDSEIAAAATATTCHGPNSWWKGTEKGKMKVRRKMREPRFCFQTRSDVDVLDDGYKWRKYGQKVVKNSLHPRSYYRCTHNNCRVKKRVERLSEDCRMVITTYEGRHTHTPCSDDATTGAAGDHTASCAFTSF

The list shows a part of the results.

This test deals with OsWRKY34 (Oryza sativa, UniProt Q0JBA9 1-250). In words: protein-binding microarray (RPBM); PBS, 2% BSA, 51.3 ng/ul salmon testes DNA, 50 uM zinc acetate, 200 nM TF, 25 C, 1 h; high values mean tight binding. The conditions noted are these: protein: recombinant; tags: N-terminal polyhistidine and DsRed monomer fusion (pET32a); label: CyDye5-dUTP incorporated in the synthesized complementary strand; 3' TTTTT single-stranded linker to array surface; dsDNA, one strand shown. In a few lines:
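For the binding signal, per-feature fluorescence intensity was read in arbitrary units on an Axon 4000B scanner. Before scanning, a 2% BSA-blocked custom Agilent array made double-stranded with Cy5-dUTP was washed after 1 h at 25 °C with 200 nM protein and 50 µM zinc acetate. The proteins were Ni–NTA-purified transcription factors with N-terminal polyhistidine and DsRed fusions, expressed in E. coli BL21-CodonPlus.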
In the case of “CTCACCGATCCCATCTCAATTCTCACCGCCTCACCGCGCCCGGAGTCACCTAGTGCAG”, the binding signal was 9270 fluorescence intensity (a.u.).

Consider “TCCTCTTCCTCATCCTCGACCGTGCCGCCGCCCATGACCCCGGAGTCACCTAGTGCAG”, for which the binding signal was 8040 fluorescence intensity (a.u.).

“TTTTGGTATACTGCACTTTTGAATTTTACAACCACATCTCCGGAGTCACCTAGTGCAG”: the binding signal is 8800 fluorescence intensity (a.u.).

For the sequence “GTCTGGGAGCAATAGGTCGCAATCATACATGCTTTATCTTCGGAGTCACCTAGTGCAG”, the binding signal was 9770 fluorescence intensity (a.u.).

As for “CTTCATTGATGTTGTCAGTGTTTACTAAGCACTTATTTTTCGGAGTCACCTAGTGCAG”, the binding signal was 8070 fluorescence intensity (a.u.).

“CATTTCGAGCCTTACTGTTTTTATTTAGTTTTCGAGAAAACGGAGTCACCTAGTGCAG”: the binding signal was 10800 fluorescence intensity (a.u.).

Turning to “CGGGTGGAGACTATTTTAATCTTATTATTATTCAGTGTGACGGAGTCACCTAGTGCAG”, the binding signal is 10400 fluorescence intensity (a.u.).

Turning to “CAACATCACGGCCACGAGGTCGCCCCGTTCTTCCATGTTCCGGAGTCACCTAGTGCAG”, the binding signal is 8140 fluorescence intensity (a.u.).

As to “CGCATCTCGTTTTCTCTTTATTTGTTTCTTCTTTCGCTTTCGGAGTCACCTAGTGCAG”, the binding signal is 13800 fluorescence intensity (a.u.).

For “GGTTTGGTGTTTGACATGTCACAGGGCGTTGCCGCCATTACGGAGTCACCTAGTGCAG”, the binding signal is 8400 fluorescence intensity (a.u.).

Turning to “GTTGAGGTTTCCAACTCATTTTTCTCGTTTTACACATGCACGGAGTCACCTAGTGCAG”, the binding signal was 8770 fluorescence intensity (a.u.).

For the sequence “AAATCAATATTTTCTGGTTGTTCTTCCACCATTTTACTATCGGAGTCACCTAGTGCAG”, the binding signal is 8900 fluorescence intensity (a.u.).

Regarding “TACTATTATATTCTATGCTCTGGATCTACACATATGTGCTCGGAGTCACCTAGTGCAG”, the binding signal is 8170 fluorescence intensity (a.u.).

Turning to “CATTCCAGCGCACCGACCGCAACGAAATGTTTCTGCGTTCCGGAGTCACCTAGTGCAG”, the binding signal was 8340 fluorescence intensity (a.u.).

On to “GGTTTCAAGAAAAGGAAAAGAAAAACTAAACGTAGTATAACGGAGTCACCTAGTGCAG”, for which the binding signal is 11300 fluorescence intensity (a.u.).

Consider “TTCGTACACTTTCTCCAGCCACAGCGCCGCCGCAATTCGCCGGAGTCACCTAGTGCAG”, for which the binding signal was 9910 fluorescence intensity (a.u.).

With “AAATCACAATTTTCTCTCGTCTACTCTTGCATACACAACACGGAGTCACCTAGTGCAG”, the binding signal is 9460 fluorescence intensity (a.u.).

With “GGACCATACTGTTTTCTTTCTTTTTTTTTCTCTCTCTCTCCGGAGTCACCTAGTGCAG”, the binding signal was 10200 fluorescence intensity (a.u.).

As to “CACCCGAATTTTTGGGACTTCTTTTCCAACATGTGTCATACGGAGTCACCTAGTGCAG”, the binding signal is 8570 fluorescence intensity (a.u.).

As for “AAAACATTTCTCTATTCGTTTCATTCTTCAAAGATGAGAGCGGAGTCACCTAGTGCAG”, the binding signal was 8100 fluorescence intensity (a.u.).

In the case of “AATTTCGGAAGGGTTGGTTTAGGCAGTAATATTCTCCATTCGGAGTCACCTAGTGCAG”, the binding signal was 8280 fluorescence intensity (a.u.).

For “CGTTTTCTTTTTTCCATGATAAATAATGTGTTTCTACTAACGGAGTCACCTAGTGCAG”, the binding signal is 10600 fluorescence intensity (a.u.).

“CTGCCACTCCCGCCATCTCTCCGTTGTCCTCTCCACCGACCGGAGTCACCTAGTGCAG”: the binding signal was 10800 fluorescence intensity (a.u.).

For “TCATAGTCGGGCGTGGGAGGTTTTTTTTTTTGAGTCGGACCGGAGTCACCTAGTGCAG”, the binding signal is 8130 fluorescence intensity (a.u.).

As for “GGGAACTTCGCCCGCCACCTGCGCCGATCTCCATCAATCTCGGAGTCACCTAGTGCAG”, the binding signal is 8540 fluorescence intensity (a.u.).

With “CTCCTGCGCACGTTTTTTTGTCTGATGCTGCAGTTTTATACGGAGTCACCTAGTGCAG”, the binding signal is 12200 fluorescence intensity (a.u.).

“TCATACATCCCACGTACGTGCATTCCACCAACAACCCTGACGGAGTCACCTAGTGCAG”: the binding signal is 10300 fluorescence intensity (a.u.).

With “GAAGTATGTTGTTTGCTTGTGTTTGTGATGCTATATTGTTCGGAGTCACCTAGTGCAG”, the binding signal is 11100 fluorescence intensity (a.u.).

As to “CGTTGTTGTTTACTCATTGTTTTGTTACCATACATGTCTTCGGAGTCACCTAGTGCAG”, the binding signal is 12700 fluorescence intensity (a.u.).

In the case of “ATTACCGTTATTTATGCATCATTCACAATTTTTCCGTGATCGGAGTCACCTAGTGCAG”, the binding signal is 8260 fluorescence intensity (a.u.).

Take “CGAAGTGGGTCTCCTATCTGTGGATCTGGCGTGCTTAAAACGGAGTCACCTAGTGCAG”: the binding signal is 8650 fluorescence intensity (a.u.).

As for “CATTTTCACCTAAATTGCCATTGTTTTGTGAGTTTCTTGCCGGAGTCACCTAGTGCAG”, the binding signal was 8960 fluorescence intensity (a.u.).

For “TAATTCTCTATTAGTCAAGTACTGTCCTAGCTCTAGTTTTCGGAGTCACCTAGTGCAG”, the binding signal was 11400 fluorescence intensity (a.u.).

For “ATACTGACCCAGCAAGTTTGACCACGGTTCACTTATCACGCGGAGTCACCTAGTGCAG”, the binding signal is 10400 fluorescence intensity (a.u.).

For “TGCGCTCATGGCCATCCATTTTCTTCTTCTTCTTTTTTTTCGGAGTCACCTAGTGCAG”, the binding signal is 10300 fluorescence intensity (a.u.).

Take “TCCCCACCTGTCAGTACTTATGTTTTGACTTTTTGACCCACGGAGTCACCTAGTGCAG”: the binding signal was 14300 fluorescence intensity (a.u.).

For “TTGATGACAAGTTGAGGGTCCTTTAGTGTACTTTTTCTTACGGAGTCACCTAGTGCAG”, the binding signal was 8120 fluorescence intensity (a.u.).

In the case of “CGTTGAAAGCATCCGTCCGTAGCCCCGGTCGCCTTCCACCCGGAGTCACCTAGTGCAG”, the binding signal was 8560 fluorescence intensity (a.u.).

“ATGGATGGTATTGCCTTGAGCTTTAAAAACACAACCTTTCCGGAGTCACCTAGTGCAG”: the binding signal is 9240 fluorescence intensity (a.u.).

As to “CCCCATCTTTTAGCCCAATAACAACGGGGTCATCTTTTTTCGGAGTCACCTAGTGCAG”, the binding signal was 9260 fluorescence intensity (a.u.).

Consider “TGTGGTCCAATCAAACTGCCATTCATATGTTTTTCCTTTACGGAGTCACCTAGTGCAG”, for which the binding signal was 9590 fluorescence intensity (a.u.).

“CGCTCGCCCTTCTCCGCTTCGCGTGTTGTACTGTTCTCCCCGGAGTCACCTAGTGCAG”: the binding signal was 8210 fluorescence intensity (a.u.).
